Results are given in words; binding and its absence hold for the method and conditions named. Binding seen in cells or lysates may run through a third protein. For some assays here: A result given as binding can be weak or reduced; the word gives no strength. For some assays here: Sequences can lack the tags named with a protein.

The target of assay [1] is T1, phogrin (endogenous, mouse) (mouse (endogenous in mouse islets and MIN6)) (UniProt P80560).
T1 sequence: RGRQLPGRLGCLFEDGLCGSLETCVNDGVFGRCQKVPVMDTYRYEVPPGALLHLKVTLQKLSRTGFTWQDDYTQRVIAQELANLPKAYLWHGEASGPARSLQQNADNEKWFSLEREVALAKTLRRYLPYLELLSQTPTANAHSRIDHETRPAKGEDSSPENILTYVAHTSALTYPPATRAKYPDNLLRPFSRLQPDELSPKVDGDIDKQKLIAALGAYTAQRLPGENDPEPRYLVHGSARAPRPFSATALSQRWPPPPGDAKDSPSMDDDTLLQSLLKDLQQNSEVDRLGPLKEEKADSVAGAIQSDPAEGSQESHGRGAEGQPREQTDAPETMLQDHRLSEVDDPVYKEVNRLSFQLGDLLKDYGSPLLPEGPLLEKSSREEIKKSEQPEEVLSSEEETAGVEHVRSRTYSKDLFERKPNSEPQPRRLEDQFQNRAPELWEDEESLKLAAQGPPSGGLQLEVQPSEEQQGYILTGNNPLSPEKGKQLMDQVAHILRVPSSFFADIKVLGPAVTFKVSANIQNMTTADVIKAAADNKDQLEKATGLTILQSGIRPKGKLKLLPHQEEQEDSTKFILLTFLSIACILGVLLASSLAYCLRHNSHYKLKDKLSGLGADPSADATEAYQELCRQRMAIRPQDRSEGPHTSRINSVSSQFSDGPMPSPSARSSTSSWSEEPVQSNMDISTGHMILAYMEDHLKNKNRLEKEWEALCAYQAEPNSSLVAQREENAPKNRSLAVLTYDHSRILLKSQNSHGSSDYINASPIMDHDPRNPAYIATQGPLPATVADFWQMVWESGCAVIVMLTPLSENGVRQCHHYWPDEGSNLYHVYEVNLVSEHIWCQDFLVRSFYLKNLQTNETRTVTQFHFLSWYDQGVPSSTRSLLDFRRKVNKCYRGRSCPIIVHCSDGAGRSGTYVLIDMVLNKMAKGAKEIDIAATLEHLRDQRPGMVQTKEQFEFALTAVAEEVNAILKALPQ
Kind of assay: co-IP; MIN6 cells cultured at various densities (50–100%), 1.5 mg extract precipitated with anti-phogrin antibody, blot for IR.

A further assay deals with T2, phogrin–GST (UniProt Q63475).
T2 sequence: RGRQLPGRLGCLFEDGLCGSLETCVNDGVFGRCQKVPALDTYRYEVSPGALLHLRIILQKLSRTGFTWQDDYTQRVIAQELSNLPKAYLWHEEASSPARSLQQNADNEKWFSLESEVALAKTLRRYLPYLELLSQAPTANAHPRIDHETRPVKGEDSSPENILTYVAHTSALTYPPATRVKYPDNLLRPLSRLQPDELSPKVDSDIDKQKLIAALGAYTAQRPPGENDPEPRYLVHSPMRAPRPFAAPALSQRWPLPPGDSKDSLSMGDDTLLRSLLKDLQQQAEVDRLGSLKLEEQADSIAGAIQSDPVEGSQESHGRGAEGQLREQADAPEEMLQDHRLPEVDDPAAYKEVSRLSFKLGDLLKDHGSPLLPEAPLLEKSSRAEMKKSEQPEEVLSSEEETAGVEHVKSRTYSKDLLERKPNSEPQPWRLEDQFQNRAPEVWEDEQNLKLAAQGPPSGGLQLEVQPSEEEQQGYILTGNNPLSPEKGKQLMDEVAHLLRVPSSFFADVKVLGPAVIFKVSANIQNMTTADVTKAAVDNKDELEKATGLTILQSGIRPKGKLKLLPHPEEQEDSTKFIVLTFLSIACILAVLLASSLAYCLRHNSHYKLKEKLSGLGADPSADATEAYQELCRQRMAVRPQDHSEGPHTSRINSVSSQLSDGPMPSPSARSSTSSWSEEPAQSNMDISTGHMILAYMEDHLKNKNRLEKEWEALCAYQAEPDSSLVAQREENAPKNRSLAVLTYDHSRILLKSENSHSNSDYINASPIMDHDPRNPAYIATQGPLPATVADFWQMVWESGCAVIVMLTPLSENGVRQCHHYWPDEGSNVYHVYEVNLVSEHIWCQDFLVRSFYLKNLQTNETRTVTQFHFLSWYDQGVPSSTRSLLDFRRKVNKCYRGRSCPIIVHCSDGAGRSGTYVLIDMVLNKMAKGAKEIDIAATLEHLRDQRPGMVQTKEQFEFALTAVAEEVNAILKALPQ
In words: pull-down; MIN6 cells stably expressing phogrin–GST, at 90% (high) or 50% (low) density, extract pulled down with glutathione sepharose, blot for IR.

Assay [2] concerns the target T1, phogrin (endogenous, mouse) (mouse (endogenous in mouse islets and MIN6)). Kind of assay: co-IP; islets of wild-type mice on the normal diet (NFD), lysis buffer A, 0.5 mg extract precipitated with anti-phogrin rabbit antibody, blot for IRβ.
For another assay, the target named is T3, phogrin–EGFP (UniProt Q63475).
T3 sequence: T2 sequence
Kind of assay: co-IP; MIN6 cells stably expressing phogrin–EGFP, at 90% (high) or 50% (low) density, extract precipitated with anti-GFP monoclonal antibody, blot for IR.

The target in assay [3] is T1, phogrin (endogenous, mouse) (mouse (endogenous in mouse islets and MIN6)). In words: co-IP; islets of HFD-fed wild-type mice, lysis buffer A (1% Nonidet P-40, 150 mM NaCl), 0.5 mg extract precipitated with anti-phogrin rabbit antibody, blot for IRβ.

For the substance insulin receptor (endogenous, mouse), the binding result in assay [1] is listed as “binds”; with phogrin–GST it was “binds”; in assay [2] it was “no binding (only islets of mice on the normal diet)”; with phogrin–EGFP, “binds”; in assay [3], “binds”.

The values above are taken from PMC10780347.
